Data reported in the supplement of paper PMC4604168 (melanoma cell lines).
The list shows a part of the results. Many values rest on one well or one pass, so single values are uncertain.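 The apoptosis fraction was the count of cleaved-PARP antibody-stained nuclei relative to all DNA-stained nuclei, imaged in 1,536-well plates. Screening doses were set so most cells survived, and baseline and induced cleaved-PARP levels vary greatly across cell lines.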

Columns and labels:
Experiment in all cases: cleaved PARP positive nuclei fraction relative to DMSO control; melanoma cells; higher = more apoptosis
Conditions in all cases: library dose: low library concentration; 72 h
501Mel = system: 501Mel
A101D = system: A101D
A2058 = system: A2058
A375 = system: A375
C32 = system: C32
CBRC008 = system: CBRC008 (line from a melanoma biopsy)
CBRC014 = system: CBRC014 (line from a melanoma biopsy)
CBRC016 = system: CBRC016 (line from a melanoma biopsy)
CBRC017 = system: CBRC017 (line from a melanoma biopsy)
CBRC034 = system: CBRC034 (line from a melanoma biopsy)
COLO792 = system: COLO792
COLO800 = system: COLO800
COLO829 = system: COLO829
G361 = system: G361
IPC-298 = system: IPC-298
IST-MEL1 = system: IST-MEL1
LB2518-MEL = system: LB2518-MEL
LOXIMVI = system: LOXIMVI
MEL-HO = system: MEL-HO

| SMILES | cleaved PARP positive nuclei fraction (501Mel) [%] | cleaved PARP positive nuclei fraction (A101D) [%] | cleaved PARP positive nuclei fraction (A2058) [%] | cleaved PARP positive nuclei fraction (A375) [%] | cleaved PARP positive nuclei fraction (C32) [%] | cleaved PARP positive nuclei fraction (CBRC008) [%] | cleaved PARP positive nuclei fraction (CBRC014) [%] | cleaved PARP positive nuclei fraction (CBRC016) [%] | cleaved PARP positive nuclei fraction (CBRC017) [%] | cleaved PARP positive nuclei fraction (CBRC034) [%] | cleaved PARP positive nuclei fraction (COLO792) [%] | cleaved PARP positive nuclei fraction (COLO800) [%] | cleaved PARP positive nuclei fraction (COLO829) [%] | cleaved PARP positive nuclei fraction (G361) [%] | cleaved PARP positive nuclei fraction (IPC-298) [%] | cleaved PARP positive nuclei fraction (IST-MEL1) [%] | cleaved PARP positive nuclei fraction (LB2518-MEL) [%] | cleaved PARP positive nuclei fraction (LOXIMVI) [%] | cleaved PARP positive nuclei fraction (MEL-HO) [%] |
| --- | --- | --- | --- | --- | --- | --- | --- | --- | --- | --- | --- | --- | --- | --- | --- | --- | --- | --- | --- |
| Nc1ccn([C@@H]2O[C@H](CO)[C@@H](O)C2(F)F)c(=O)n1 [gemcitabine] + CC(=O)c1c(C)c2cnc(Nc3ccc(N4CCNCC4)cn3)nc2n(C2CCCC2)c1=O [palbociclib] (first compound 0.0004 µM, partner dose 0.04 µM) | 212 | 167 | 120 | 220 | 64.3 | 167 | 139 | 145 | 124 | 38.2 | 116 | 97.1 | 141 | 150 | 207 | 149 | 133 | 67.5 | 86.9 |
| C=C(c1ccc(C(=O)O)cc1)c1cc2c(cc1C)C(C)(C)CCC2(C)C [Bexarotene] + Cn1nnc2c(C(N)=O)ncn2c1=O [temozolomide] (first compound 2 µM, partner dose 2 µM) | 115 | 148 | 107 | 59.8 | 74.1 | 231 | 138 | 88.3 | 96.3 | 61.4 | 79.2 | 74.7 | 113 | 122 | 249 | 63.6 | 171 | 89.4 | 56.4 |
| CC(C)C[C@H](NC(=O)[C@H](Cc1ccccc1)NC(=O)c1cnccn1)B(O)O [Bortezomib] + C#Cc1cccc(Nc2ncnc3cc(OCCOC)c(OCCOC)cc23)c1 [erlotinib] (first compound 0.001 µM, partner dose 0.8 µM) | 272 | 866 | 359 | 113 | 88.4 | 964 | 260 | 428 | 719 | 452 | 39.4 | 178 | 213 | 6040 | 193 | 90.9 | 258 | 293 | 63 |
| Cc1cc(Nc2cc(N3CCN(C)CC3)nc(/C=C/c3ccccc3)n2)n[nH]1 + O=C(O)[C@@H]1[O][Sb](=[O])([O][Sb]2(=[O])[O][C@H]([C@H](O)CO)[C@H](O)[C@H](C(=O)O)[O]2)[O][C@H]([C@H](O)CO)[C@@H]1O [stibogluconate] (first compound 0.04 µM, partner dose 2 µM) | 203 | 44.8 | 86.9 | 63.4 | 87.4 | 65.1 | 96.8 | 41.9 | 130 | 42.8 | 166 | 66.1 | 67.7 | 99.1 | 53.4 | 92.7 | 64.7 | 178 | 35.9 |
| Cc1cc(Nc2cc(N3CCN(C)CC3)nc(/C=C/c3ccccc3)n2)n[nH]1 + CC(C)C[C@H](NC(=O)[C@H](Cc1ccccc1)NC(=O)c1cnccn1)B(O)O [Bortezomib] (first compound 0.04 µM, partner dose 0.001 µM) | 599 | 341 | 290 | 179 | 66.7 | 578 | 128 | 214 | 178 | 78.6 | 155 | 73.9 | 157 | 619 | 213 | 102 | 510 | 154 | 80.5 |
| Cc1cc(Nc2cc(N3CCN(C)CC3)nc(/C=C/c3ccccc3)n2)n[nH]1 + Cc1nc(Nc2ncc(C(=O)Nc3c(C)cccc3Cl)s2)cc(N2CCN(CCO)CC2)n1 [dasatanib] (first compound 0.04 µM, partner dose 0.004 µM) | 151 | 103 | 106 | 56.1 | 83.5 | 19.6 | 93.8 | 71.1 | 95.5 | 267 | 113 | 128 | 135 | 90.9 | 178 | 144 | 114 | 152 | 65.5 |
| C=C(c1ccc(C(=O)O)cc1)c1cc2c(cc1C)C(C)(C)CCC2(C)C [Bexarotene] + Cc1nc(Nc2ncc(C(=O)Nc3c(C)cccc3Cl)s2)cc(N2CCN(CCO)CC2)n1 [dasatanib] (first compound 2 µM, partner dose 0.004 µM) | 71.6 | 87.6 | 42.7 | 128 | 80.3 | 96.4 | 112 | 189 | 146 | 696 | 101 | 59 | 131 | 115 | 82.6 | 67.5 | 90.3 | 158 | 199 |
| Cc1cc(Nc2cc(N3CCN(C)CC3)nc(/C=C/c3ccccc3)n2)n[nH]1 + NC1(c2ccc(-c3nc4ccn5c(=O)[nH]nc5c4cc3-c3ccccc3)cc2)CCC1 [MK2206] (first compound 0.04 µM, partner dose 0.4 µM) | 80.1 | 122 | 38.5 | 142 | 137 | 239 | 95 | 111 | 121 | 139 | 165 | 142 | 146 | 121 | 140 | 71 | 133 | 107 | 95.3 |
| Cc1cc(Nc2cc(N3CCN(C)CC3)nc(/C=C/c3ccccc3)n2)n[nH]1 + Nc1cccc2c1CN(C1CCC(=O)NC1=O)C2=O [lenalidomide] (first compound 0.04 µM, partner dose 1 µM) | 124 | 92.4 | 65.5 | 174 | 78.2 | 148 | 93.3 | 213 | 83.2 | 141 | 152 | 103 | 127 | 44.5 | 81.5 | 178 | 123 | 56 | 79.6 |
